Measurements reported in US20220112295A1 (Novo Nordisk, published 2022).
Where a chain is given by its changes, count along the chain named. Results are given in words; binding and its absence hold for the method and conditions named. Some results given as binding are weak or reduced against the parent protein; the word gives no strength. For some of these results: Where a sequence is shown, tags or fusion partners need not be part of it.

How the values were obtained:
rhCD30L (human) = molecular target: T1, rhCD30L (human) (UniProt P32971); experiment: binding competition assay, labeled against unlabeled antibodies
T1 sequence: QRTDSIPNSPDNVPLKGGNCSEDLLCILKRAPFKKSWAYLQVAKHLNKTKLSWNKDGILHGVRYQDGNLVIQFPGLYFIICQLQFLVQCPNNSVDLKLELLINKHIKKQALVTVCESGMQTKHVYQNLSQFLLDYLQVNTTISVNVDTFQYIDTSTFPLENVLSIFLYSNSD

[1] = molecular target: T2, native human CD30L expressed on Ramos cells (human) (UniProt P32971); experiment: screening, FMAT and FACS
T2 sequence: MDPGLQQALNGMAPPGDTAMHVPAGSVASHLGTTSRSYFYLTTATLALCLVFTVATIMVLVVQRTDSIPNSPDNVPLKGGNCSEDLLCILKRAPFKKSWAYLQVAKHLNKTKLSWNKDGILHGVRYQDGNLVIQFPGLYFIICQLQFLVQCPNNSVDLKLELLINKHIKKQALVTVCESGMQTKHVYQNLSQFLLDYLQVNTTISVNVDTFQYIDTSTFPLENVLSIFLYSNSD

[2] = molecular target: T2, native human CD30L expressed on Ramos cells (human); experiment: FACS Kd method on Ramos cells
[3] = molecular target: native cynomolgus monkey CD30L on activated T cells (cynomolgus monkey); experiment: screening
[4] = molecular target: T3, FLAG-hCD30L-EC (N153Q) treated with PNGaseF (human); experiment: HX-MS, 6 uM hCD30L with 6.6 uM mAb
T3 sequence: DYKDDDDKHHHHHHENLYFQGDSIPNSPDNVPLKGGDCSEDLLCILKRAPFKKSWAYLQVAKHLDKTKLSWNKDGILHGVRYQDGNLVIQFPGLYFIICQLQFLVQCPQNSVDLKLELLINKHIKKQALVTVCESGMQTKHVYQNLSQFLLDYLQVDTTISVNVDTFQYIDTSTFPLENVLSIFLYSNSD

[5] = molecular target: T4, His-hCD30L-EC treated with PNGaseF (human) (UniProt P32971); experiment: HX-MS, 6 uM hCD30L with 6.6 uM mAb
T4 sequence (chain, N-glycosylations remain at N153 and N201 after PNGaseF (Table 7)): T1 sequence with N19D, N47D

[6] = molecular target: T5, human CD30L-His10 trimer (R&D Systems 1028-CL) (human) (UniProt P32971); experiment: Biacore sandwich, hCD30L-His10 trimer captured on A1-FAB, antibody at 75 nM
T5 sequence: T1 sequence

Measured: binding

B1: Antibody A (antibody, V domains shown)
VH: QVQLQESGPGLVKPSETLSLTCTVSGGSISSYIWSWIRQPAGKGLEWIGRIYASGNTNYNPSLKSRVTMSVDTSKNQFSLKLSSMTAADTAVYYCARDYRVAGTYYYYYGLDVWGQGTTVTVSS
VL: QSALTQPASVSGSPGQSITISCTGTSSDVGVYDYVSWYQQHPGKAPKLMIYEVSNRPSGVSNRFSGSKSGNTASLTISGLQTEDEADYYCSSYTSRSTWVFGGGTKLTVL
notes: Human antibody (XenoMouse); also called mAb A; anti-hCD30L A
binds: rhCD30L (human) | [1] | [2] | [3]

B2: Antibody F (antibody, V domains shown)
VH: QVQLQESGPGLVKPSETLSLTCTVSGGSISSYYWSWIRQPAGKGLEWIGRIFASGSTNYNPSLRSRVTMSRDTSKNQFSLKLSSVTAADTAVYYCAKERVGVQDYYHYSGMDVWGQGTTVTVSS
VL: B1 VL with V31L, D33N, H41Q, N55K, K68T, T82A, E83D, Y89S, R96S
notes: also called mAb F
binds: rhCD30L (human) | [3]

B3: Antibody D (antibody, V domains shown)
VH: QVQLQESGPGLVKPSETLSLTCTVSGGSISSYSWSWIRQPAGKGLEWIGRTSTSGRNNYNPSLKSRVTMSVDTSKNQFSLKLNSVTAADTAVYYCARDFTIAARRYYYYGMDVWGQGTTVTVSS
VL: B1 VL with V29I, V31L, D33N, M49I, S54I, K68E, T82A, D87N, R96S
notes: also called mAb D
binds: rhCD30L (human) | [3]

B4: Antibody B (antibody, V domains shown)
VH: QVQLQESGPGLVKPSETLSLTCTVSGGSISSYYWTWIRQPAGKGLEWIGRIYTSGITNYNPSLKSRVTMSVDTSKNQFSLKLSSVTAADTAVYYCARERVVGASRYYYYGVDVWGQGTTVTVSS
VL: B1 VL with V31L, D33N, G43D, Y51F, S54N, K68N, T82A, R96S
notes: also called mAb B
binds: rhCD30L (human) | [1] | [4] | [2] | [3]

B5: Antibody A1 (antibody, V domains shown)
VH: B1 VH with M69I
VL: B1 VL
notes: also called mAb A1; Antibody A1 IgG2
binds: [5]

B6: Antibody C (antibody, V domains shown)
VH: B4 VH
VL: QSALTQPASVSGSPGQSITISCTGTSSDIGLYDYVSWYQQHPDRAPKLIIFEVNNRPSGVSYRFSGSNSGNTASLTISGLQAEDEADYYCSSYTSSSTWVFGGGTKLTVL
notes: also called mAb C
binds: [6] | rhCD30L (human) | [1] | [4] | [2] | [3]

B7: Antibody E (antibody, V domains shown)
VH: QVQLQESGPRLVKPSETLSLTCTVSGGSITNNYWSWIRQPAGKGLEWIGRVYSSGLTNYKPSLKSRVTMSVDTSKNQFSLRLNSVTAADTAVYYCARERATVTTRYHYDGMDVWGQGTSVTVSS
VL: QSALTQPASVSGSPGQSITISCTGSSSDIGTYNYVSWYQQYPGKAPELMIYEVNNRPSGVSDRFSGSTSGNTASLTISGLQANDEADYYCSSYSSSSTWVFGGGTKLTVL
notes: also called mAb E
binds: rhCD30L (human) | [3]
